Test system: MDCK cells
Assay type: cell-based

CN1CC[C@]23c4c5ccc(O)c4O[C@H]2[C@@H](O)C=C[C@H]3[C@H]1C5 [morphine]
TEER of MDCK cells following apical exposure to PA27853 plus opioid: more profound decrease in the TEER
